Measurements taken from paper PMC10531723.
Results are given in words; binding and its absence hold for the method and conditions named. Some results given as binding are weak or reduced against the parent protein; the word gives no strength.

Molecular target: PrP-CFP (mouse PrP(23-231) fused to CFP) (mouse) (UniProt P04925)
Assay: semi-denaturing detergent agarose gel electrophoresis (SDD-AGE)

With “PrP-CFP (mouse PrP(23-231) fused to CFP) (from UniProt P04925 23-231) (domain or fragment)” the binding was “binds”.
